According to the supplement of paper PMC6078165:
Values are relative to the signal before dosing, not to a vehicle control; the signal also falls without drug.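 Fibroblast labels name human fibroblasts: mostly primary ones from tissues such as uterus (C12385, HUF), lung (H6013), bone (Hs27A), adrenal (HADF) and skin (WS1), plus mammary HMF and breast cancer-associated Hs343T. The cancer cells are basal-like or mesenchymal-like triple-negative breast cancer lines. The paper calls a changed response a hit when it shifts by more than 3x the replicate standard deviation. The tissue of the other fibroblasts is not given here.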

Test system: MDAMB231
Assay: relative JC-1 red fluorescence (viability) vs pre-drug, coculture with fibroblast (fraction); higher = more viable cancer cells
Procedure: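 JC-1 labelled TNBC cells cocultured 1:1 (1,500 cells each) with CellTrace Violet stained primary or stromal fibroblasts in 384-well plates in FluoroBrite medium, treated with one of 42 anticancer drugs at 0.1, 1, 10 or 100 uM. JC-1 red fluorescence (mitochondrial integrity in cancer cells only) was read by plate reader every 8 h for 72 h. Values are normalised to each well's pre-drug value. The stock of one drug was tenfold lower, so its dose labels may be too high.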

CCCCCOC(=O)Nc1nc(=O)n([C@@H]2O[C@H](C)[C@@H](O)[C@H]2O)cc1F [Capecitabine]
relative JC-1 red fluorescence
Conditions	8 h	16 h	24 h	32 h	40 h	48 h	56 h	64 h	72 h
0.1 µM, coculture fibroblast: C12385	0.7701	0.7166	0.616	0.6169	0.552	0.5132	0.466	0.454	0.431
0.1 µM, coculture fibroblast: H6013	0.889	0.8431	0.795	0.781	0.733	0.714	0.694	0.658	0.61
0.1 µM, coculture fibroblast: H6019	0.786	0.765	0.652	0.667	0.633	0.606	0.556	0.535	0.492
0.1 µM, coculture fibroblast: H6076	0.904	0.819	0.783	0.744	0.711	0.675	0.642	0.621	0.611
0.1 µM, coculture fibroblast: H6231	0.94	0.832	0.767	0.711	0.649	0.606	0.56	0.529	0.5
0.1 µM, coculture fibroblast: HADF	0.8887	0.8521	0.804	0.7644	0.728	0.677	0.665	0.652	0.605
0.1 µM, coculture fibroblast: HCFa	0.9016	0.8463	0.81	0.774	0.718	0.665	0.635	0.6	0.55
0.1 µM, coculture fibroblast: HCPF	0.884	0.7748	0.71	0.67	0.623	0.583	0.542	0.515	0.496
0.1 µM, coculture fibroblast: HHSteC	0.86495	0.811	0.749	0.691	0.645	0.613	0.564	0.528	0.487
0.1 µM, coculture fibroblast: HMF	0.893	0.815	0.747	0.689	0.635	0.5806	0.541	0.516	0.497
0.1 µM, coculture fibroblast: HPFa	0.949	0.89	0.841	0.772	0.73	0.682	0.624	0.583	0.516
0.1 µM, coculture fibroblast: HUF	0.849	0.691	0.697	0.572	0.51	0.48	0.434	0.429	0.405
0.1 µM, coculture fibroblast: Hs5	0.877	0.7936	0.721	0.6707	0.6229	0.5622	0.529	0.49195	0.471
0.1 µM, coculture fibroblast: Hs27A	0.8737	0.785	0.735	0.698	0.631	0.544	0.562	0.534	0.487
0.1 µM, coculture fibroblast: Hs343T	0.881	0.744	0.669	0.616	0.554	0.497	0.436	0.406	0.381
0.1 µM, coculture fibroblast: WS1	0.721	0.643	0.596	0.518	0.466	0.438	0.393	0.39	0.368
1 µM, coculture fibroblast: C12385	0.778	0.6836	0.739	0.635	0.58	0.564	0.532	0.544	0.534
1 µM, coculture fibroblast: H6013	0.916	0.829	0.7834	0.7611	0.7331	0.7234	0.689	0.65997	0.61
1 µM, coculture fibroblast: H6019	0.751	0.64	0.639	0.585	0.54	0.542	0.506	0.504	0.47
1 µM, coculture fibroblast: H6076	0.8237	0.735	0.6901	0.666	0.629	0.585	0.562	0.557	0.544
1 µM, coculture fibroblast: H6231	0.8843	0.792	0.702	0.6614	0.612	0.573	0.5292	0.522	0.497
1 µM, coculture fibroblast: HADF	0.907	0.8221	0.77291	0.73947	0.7058	0.679	0.647	0.643	0.593
1 µM, coculture fibroblast: HCFa	0.901	0.823	0.784	0.741	0.6856	0.6399	0.597	0.569	0.514
1 µM, coculture fibroblast: HCPF	0.871	0.748	0.704	0.667	0.61	0.564	0.532	0.50492	0.48743
1 µM, coculture fibroblast: HHSteC	0.9149	0.838	0.786	0.742	0.696	0.662	0.612	0.594	0.552
1 µM, coculture fibroblast: HMF	0.885	0.7896	0.72	0.676	0.626	0.588	0.543	0.519	0.503
1 µM, coculture fibroblast: HPFa	0.9381	0.8647	0.813	0.749	0.713	0.67	0.614	0.587	0.521
1 µM, coculture fibroblast: HUF	0.844	0.67239	0.723	0.591	0.5298	0.528	0.483	0.48	0.467
1 µM, coculture fibroblast: Hs5	0.896	0.777	0.727	0.681	0.633	0.578	0.538	0.506	0.48
1 µM, coculture fibroblast: Hs27A	0.837	0.777	0.733	0.703	0.655	0.617	0.598	0.582	0.517
1 µM, coculture fibroblast: Hs343T	0.858	0.749	0.677	0.623	0.572	0.525	0.474	0.453	0.426
1 µM, coculture fibroblast: WS1	0.7844	0.676	0.67	0.605	0.564	0.544	0.502	0.489	0.466
10 µM, coculture fibroblast: C12385	0.802	0.751	0.673	0.658	0.596	0.562	0.515	0.504	0.477
10 µM, coculture fibroblast: H6013	0.903	0.858	0.812	0.791	0.755	0.714	0.702	0.664	0.613
10 µM, coculture fibroblast: H6019	0.764	0.689	0.671	0.64	0.6	0.577	0.534	0.532	0.507
10 µM, coculture fibroblast: H6076	0.9034	0.821	0.751	0.719	0.674	0.631	0.592	0.568	0.55
10 µM, coculture fibroblast: H6231	0.957	0.87383	0.769	0.699	0.632	0.589	0.532	0.508	0.472
10 µM, coculture fibroblast: HADF	0.888	0.844	0.796	0.767	0.731	0.677	0.673	0.655	0.6113
10 µM, coculture fibroblast: HCFa	0.891	0.833	0.797	0.765	0.711	0.656	0.634	0.599	0.549
10 µM, coculture fibroblast: HCPF	0.848	0.753	0.696	0.662	0.602	0.563	0.5152	0.485	0.468
10 µM, coculture fibroblast: HHSteC	0.909	0.862	0.808	0.748	0.702	0.674	0.627	0.595	0.552
10 µM, coculture fibroblast: HMF	0.898	0.827	0.7524	0.693	0.638	0.5945	0.551	0.5243	0.499
10 µM, coculture fibroblast: HPFa	0.958	0.878	0.812	0.757	0.719	0.668	0.6	0.56	0.494
10 µM, coculture fibroblast: HUF	0.865	0.719	0.764	0.642	0.582	0.566	0.518	0.523	0.503
10 µM, coculture fibroblast: Hs5	0.878	0.7944	0.725	0.678	0.625	0.569	0.524	0.493	0.468
10 µM, coculture fibroblast: Hs27A	0.9048	0.821	0.775	0.738	0.674	0.587	0.601	0.578	0.526
10 µM, coculture fibroblast: Hs343T	0.86	0.772	0.698	0.653	0.603	0.553	0.499	0.473	0.441
10 µM, coculture fibroblast: WS1	0.802	0.692	0.657	0.593	0.542	0.511	0.461	0.46	0.435
100 µM, coculture fibroblast: C12385	0.77	0.7515	0.6618	0.6849	0.639	0.611	0.5847	0.575	0.5585
100 µM, coculture fibroblast: H6013	0.92452	0.8849	0.859	0.866	0.858	0.84	0.833	0.82	0.782
100 µM, coculture fibroblast: H6019	0.767	0.697	0.651	0.633	0.593	0.5718	0.52635	0.517	0.482
100 µM, coculture fibroblast: H6076	0.881	0.824	0.8019	0.80297	0.7794	0.755	0.745	0.7307	0.722
100 µM, coculture fibroblast: H6231	0.9082	0.836	0.762	0.72	0.664	0.638	0.6	0.588	0.559
100 µM, coculture fibroblast: HADF	0.904	0.865	0.827	0.803	0.772	0.723	0.709	0.692	0.641
100 µM, coculture fibroblast: HCFa	0.925	0.854	0.819	0.777	0.737	0.695	0.677	0.651	0.619
100 µM, coculture fibroblast: HCPF	0.89	0.772	0.712	0.689	0.634	0.598	0.566	0.53	0.508
100 µM, coculture fibroblast: HHSteC	0.942	0.88982	0.8417	0.8115	0.77627	0.734	0.6906	0.67	0.623
100 µM, coculture fibroblast: HMF	0.874	0.807	0.754	0.715	0.682	0.64	0.607	0.587	0.562
100 µM, coculture fibroblast: HPFa	0.9633	0.9093	0.8756	0.832	0.817	0.7889	0.73681	0.7182	0.663
100 µM, coculture fibroblast: HUF	0.89	0.761	0.799	0.69631	0.6512	0.6417	0.602	0.618	0.614
100 µM, coculture fibroblast: Hs5	0.908	0.819	0.778	0.735	0.688	0.6339	0.59982	0.574	0.544
100 µM, coculture fibroblast: Hs27A	0.912	0.872	0.842	0.811	0.756	0.6787	0.702	0.685	0.631
100 µM, coculture fibroblast: Hs343T	0.888	0.813	0.767	0.732	0.674	0.632	0.59	0.569	0.549
100 µM, coculture fibroblast: WS1	0.773	0.69	0.6364	0.59	0.545	0.5151	0.468	0.453	0.429
